Read-outs that look alike come from different tables or passages of the source. Results are given in words; binding and its absence hold for the method and conditions named. In cells and extracts the contact can be indirect. These calls come from enrichment with a bait or labelling near it, and not all partners need be listed. Where a sequence is shown, tags or fusion partners need not be part of it.
T1: FLAG–IκBζ (UniProt Q9EST8)
T1 sequence: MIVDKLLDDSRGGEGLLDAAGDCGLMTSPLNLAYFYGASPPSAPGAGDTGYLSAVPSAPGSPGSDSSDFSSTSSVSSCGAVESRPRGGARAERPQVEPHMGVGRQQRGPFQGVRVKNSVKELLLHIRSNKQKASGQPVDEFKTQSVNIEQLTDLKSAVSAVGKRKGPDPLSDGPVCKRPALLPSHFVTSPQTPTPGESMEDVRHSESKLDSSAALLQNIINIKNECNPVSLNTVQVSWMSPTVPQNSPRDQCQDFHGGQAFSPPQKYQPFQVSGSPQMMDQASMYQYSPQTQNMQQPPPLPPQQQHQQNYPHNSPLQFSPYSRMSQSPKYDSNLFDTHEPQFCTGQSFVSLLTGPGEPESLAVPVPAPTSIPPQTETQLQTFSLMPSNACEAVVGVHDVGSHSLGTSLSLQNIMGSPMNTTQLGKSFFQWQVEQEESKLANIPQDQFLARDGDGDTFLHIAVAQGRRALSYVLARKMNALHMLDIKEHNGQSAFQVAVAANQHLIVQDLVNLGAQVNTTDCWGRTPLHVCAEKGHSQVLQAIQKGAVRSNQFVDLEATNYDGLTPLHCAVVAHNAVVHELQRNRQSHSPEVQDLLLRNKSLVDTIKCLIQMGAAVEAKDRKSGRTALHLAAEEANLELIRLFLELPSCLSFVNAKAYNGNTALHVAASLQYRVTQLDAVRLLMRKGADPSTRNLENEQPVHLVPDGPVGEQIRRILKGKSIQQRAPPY

Amino acid sequences for entries named in this document (tags omitted). Residues count along the entry.
UniProt P25799, residues 1-431: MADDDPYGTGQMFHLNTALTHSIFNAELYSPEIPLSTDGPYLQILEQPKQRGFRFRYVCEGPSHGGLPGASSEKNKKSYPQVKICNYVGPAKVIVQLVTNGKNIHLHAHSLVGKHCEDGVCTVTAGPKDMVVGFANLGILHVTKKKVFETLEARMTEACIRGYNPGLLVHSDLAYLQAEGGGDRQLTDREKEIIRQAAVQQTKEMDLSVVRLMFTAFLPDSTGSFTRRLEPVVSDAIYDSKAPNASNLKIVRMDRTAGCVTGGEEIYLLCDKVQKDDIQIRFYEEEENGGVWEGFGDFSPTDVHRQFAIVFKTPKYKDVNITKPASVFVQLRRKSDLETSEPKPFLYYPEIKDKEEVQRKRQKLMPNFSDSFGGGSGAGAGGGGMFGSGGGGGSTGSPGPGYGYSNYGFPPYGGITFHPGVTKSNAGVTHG


Legend:
FLAG–IκBζ [1] = target: T1, FLAG–IκBζ; assay: affinity purification with mass spectrometry; FLAG–IκBζ precipitated with anti-FLAG (M2) agarose from sonicated nuclei of RAW264.7 cells stimulated with ZnSO4 and LPS (140 mM KCl, 0.5% NP-40, 5% glycerol, 20 mM HEPES pH 8.0); bands cut from SDS-PAGE, LC-MS/MS
FLAG–IκBζ [2] = target: T1, FLAG–IκBζ; assay: as above; remark: listed apart in the source

binding (FLAG–IκBζ [1])	binding (FLAG–IκBζ [2])	Molecule
binds	–	NF-κB p50 subunit (from UniProt P25799 1-431)
–	binds	JunB (protein, UniProt P09450 1-344) MCTKMEQPFYHDDSYAAAGYGRSPGSLSLHDYKLLKPTLALNLADPYRGLKGPGARGPGPEGSGAGSYFSGQGSDTGASLKLASTELERLIVPNSNGVITTTPTPPGQYFYPRGGGSGGGTGGGVTEEQEGFADGFVKALDDLHKMNHVTPPNVSLGASGGPQAGPGGVYAGPEPPPVYTNLSSYSPASAPSGGSGTAVGTGSSYPTATISYLPHAPPFAGGHPAQLGLSRGASAFKEEPQTVPEARSRDATPPVSPINMEDQERIKVERKRLRNRLAATKCRKRKLERIARLEDKVKTLKAENAGLSSAAGLLREQVAQLKQKVMTHVSNGCQLLLGVKGHAF

Reference: PMC5727176
